# Experimental data reported in PMC8140133.
# Amino acid sequences for entries named in this document (tags omitted).
# UniProt Q8TD26: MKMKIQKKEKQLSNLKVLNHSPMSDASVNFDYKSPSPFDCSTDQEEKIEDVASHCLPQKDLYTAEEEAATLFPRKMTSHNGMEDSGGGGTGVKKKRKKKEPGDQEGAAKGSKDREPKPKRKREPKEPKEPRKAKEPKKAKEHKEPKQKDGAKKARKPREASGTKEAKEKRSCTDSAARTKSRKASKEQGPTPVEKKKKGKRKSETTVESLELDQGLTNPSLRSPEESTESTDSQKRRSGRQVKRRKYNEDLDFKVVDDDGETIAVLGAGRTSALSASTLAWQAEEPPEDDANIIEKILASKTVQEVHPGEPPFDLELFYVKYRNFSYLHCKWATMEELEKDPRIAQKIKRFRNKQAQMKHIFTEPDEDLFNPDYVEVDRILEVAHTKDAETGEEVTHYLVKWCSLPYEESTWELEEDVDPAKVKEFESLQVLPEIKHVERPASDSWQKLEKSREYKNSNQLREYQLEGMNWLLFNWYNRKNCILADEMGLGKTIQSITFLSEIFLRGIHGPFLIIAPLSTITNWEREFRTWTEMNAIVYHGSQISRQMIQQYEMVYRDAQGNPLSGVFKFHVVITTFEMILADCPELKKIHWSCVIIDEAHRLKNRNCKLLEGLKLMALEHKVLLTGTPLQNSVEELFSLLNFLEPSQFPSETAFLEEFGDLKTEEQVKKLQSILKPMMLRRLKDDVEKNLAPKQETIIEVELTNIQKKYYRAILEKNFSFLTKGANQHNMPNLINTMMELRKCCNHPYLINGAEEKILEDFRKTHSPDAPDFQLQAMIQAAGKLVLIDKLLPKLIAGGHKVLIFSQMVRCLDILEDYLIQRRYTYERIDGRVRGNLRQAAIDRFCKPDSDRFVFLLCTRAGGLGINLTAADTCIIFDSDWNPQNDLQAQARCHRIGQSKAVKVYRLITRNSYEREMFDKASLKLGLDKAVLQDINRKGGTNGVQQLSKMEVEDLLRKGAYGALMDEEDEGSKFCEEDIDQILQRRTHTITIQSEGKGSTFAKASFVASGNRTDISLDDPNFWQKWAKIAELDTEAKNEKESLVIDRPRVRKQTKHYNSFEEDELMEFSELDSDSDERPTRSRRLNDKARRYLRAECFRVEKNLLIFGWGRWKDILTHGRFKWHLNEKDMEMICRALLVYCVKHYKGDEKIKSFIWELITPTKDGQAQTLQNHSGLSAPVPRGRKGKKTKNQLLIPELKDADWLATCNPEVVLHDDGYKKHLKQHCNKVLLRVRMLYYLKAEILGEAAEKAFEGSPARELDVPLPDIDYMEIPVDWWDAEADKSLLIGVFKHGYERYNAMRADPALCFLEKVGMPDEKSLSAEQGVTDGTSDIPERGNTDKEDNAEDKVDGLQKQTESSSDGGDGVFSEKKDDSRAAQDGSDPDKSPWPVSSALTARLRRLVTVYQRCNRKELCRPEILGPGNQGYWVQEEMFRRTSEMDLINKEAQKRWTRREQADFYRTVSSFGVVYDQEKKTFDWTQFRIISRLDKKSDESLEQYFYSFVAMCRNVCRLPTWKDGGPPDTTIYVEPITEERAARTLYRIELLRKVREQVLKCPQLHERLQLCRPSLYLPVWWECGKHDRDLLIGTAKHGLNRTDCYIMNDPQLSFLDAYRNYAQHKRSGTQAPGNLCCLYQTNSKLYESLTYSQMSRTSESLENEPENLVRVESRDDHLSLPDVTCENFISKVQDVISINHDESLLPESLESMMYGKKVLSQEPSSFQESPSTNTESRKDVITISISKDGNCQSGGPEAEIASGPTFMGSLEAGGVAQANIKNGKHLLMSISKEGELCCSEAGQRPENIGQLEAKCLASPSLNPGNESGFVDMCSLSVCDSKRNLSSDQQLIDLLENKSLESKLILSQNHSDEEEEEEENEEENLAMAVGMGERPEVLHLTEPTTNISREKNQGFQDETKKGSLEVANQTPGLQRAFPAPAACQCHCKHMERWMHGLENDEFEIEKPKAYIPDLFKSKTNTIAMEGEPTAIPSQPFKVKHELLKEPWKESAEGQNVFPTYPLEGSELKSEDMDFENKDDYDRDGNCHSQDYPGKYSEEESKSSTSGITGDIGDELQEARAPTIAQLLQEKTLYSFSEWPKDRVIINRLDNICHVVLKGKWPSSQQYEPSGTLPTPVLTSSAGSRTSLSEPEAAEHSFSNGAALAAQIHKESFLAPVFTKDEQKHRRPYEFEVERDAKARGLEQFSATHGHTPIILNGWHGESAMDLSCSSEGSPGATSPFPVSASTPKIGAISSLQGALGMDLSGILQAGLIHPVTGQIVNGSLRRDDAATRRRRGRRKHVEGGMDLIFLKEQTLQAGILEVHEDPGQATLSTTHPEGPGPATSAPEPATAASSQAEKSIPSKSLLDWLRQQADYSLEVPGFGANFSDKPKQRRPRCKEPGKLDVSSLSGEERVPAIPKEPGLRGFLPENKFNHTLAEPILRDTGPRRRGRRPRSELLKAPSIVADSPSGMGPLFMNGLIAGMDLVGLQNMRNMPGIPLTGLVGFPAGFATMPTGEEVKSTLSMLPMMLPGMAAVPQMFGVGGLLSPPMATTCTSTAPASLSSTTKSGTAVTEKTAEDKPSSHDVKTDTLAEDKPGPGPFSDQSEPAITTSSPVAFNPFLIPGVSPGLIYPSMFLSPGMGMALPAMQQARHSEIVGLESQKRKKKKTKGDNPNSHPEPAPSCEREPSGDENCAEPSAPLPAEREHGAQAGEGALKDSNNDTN
# UniProt Q92922: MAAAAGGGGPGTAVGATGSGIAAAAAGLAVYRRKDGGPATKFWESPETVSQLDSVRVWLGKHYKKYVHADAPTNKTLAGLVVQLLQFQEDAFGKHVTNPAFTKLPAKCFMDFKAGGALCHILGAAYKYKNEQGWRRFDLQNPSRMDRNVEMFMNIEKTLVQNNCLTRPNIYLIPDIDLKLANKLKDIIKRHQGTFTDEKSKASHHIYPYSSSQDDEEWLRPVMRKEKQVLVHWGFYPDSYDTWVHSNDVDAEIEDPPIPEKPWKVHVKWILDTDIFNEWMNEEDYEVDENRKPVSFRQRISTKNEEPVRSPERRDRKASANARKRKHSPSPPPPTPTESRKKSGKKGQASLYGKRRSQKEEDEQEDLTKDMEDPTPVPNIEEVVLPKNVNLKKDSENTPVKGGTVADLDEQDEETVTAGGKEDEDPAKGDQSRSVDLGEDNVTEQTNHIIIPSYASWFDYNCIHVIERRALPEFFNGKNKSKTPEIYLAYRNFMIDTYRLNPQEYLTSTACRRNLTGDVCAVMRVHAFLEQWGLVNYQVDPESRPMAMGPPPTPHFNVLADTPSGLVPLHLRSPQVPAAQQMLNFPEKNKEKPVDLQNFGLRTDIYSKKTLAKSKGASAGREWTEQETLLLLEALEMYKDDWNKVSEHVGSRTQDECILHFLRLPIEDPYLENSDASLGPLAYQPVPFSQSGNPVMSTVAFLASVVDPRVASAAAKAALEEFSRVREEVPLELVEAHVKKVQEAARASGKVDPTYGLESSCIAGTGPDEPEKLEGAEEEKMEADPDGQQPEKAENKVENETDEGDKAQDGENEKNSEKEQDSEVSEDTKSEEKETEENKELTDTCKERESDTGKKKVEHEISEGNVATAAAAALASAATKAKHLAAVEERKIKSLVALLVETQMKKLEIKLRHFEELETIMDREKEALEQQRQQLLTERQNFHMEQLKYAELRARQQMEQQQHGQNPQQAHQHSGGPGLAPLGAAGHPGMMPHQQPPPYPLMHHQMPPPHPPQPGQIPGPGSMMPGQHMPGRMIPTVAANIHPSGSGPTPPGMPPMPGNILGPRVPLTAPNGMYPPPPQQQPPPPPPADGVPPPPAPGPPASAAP
# Results are given in words; binding and its absence hold for the method and conditions named. In cells and extracts the contact can be indirect. Some entries that bind do so weakly or less than the wild type.
# Target: full-length wild-type HA-tagged CHD6 (human) (UniProt Q8TD26)
# Experiment: co-IP; anti-HA immunoprecipitation of overexpressed wild-type or mutant HA-CHD6 from iPSCs, western blot for SMARCC1
substance,measurement,value
SMARCC1 (BAF155) (from UniProt Q92922 1-1105),binding,binds
